Reference: the supplement of paper PMC10849652
This is one part of the list.

Sequences of proteins named here, by UniProt entry; tags and fusion partners are left off. A change or cut given only in a name is not applied to a line headed by its entry.
UniProt P17028: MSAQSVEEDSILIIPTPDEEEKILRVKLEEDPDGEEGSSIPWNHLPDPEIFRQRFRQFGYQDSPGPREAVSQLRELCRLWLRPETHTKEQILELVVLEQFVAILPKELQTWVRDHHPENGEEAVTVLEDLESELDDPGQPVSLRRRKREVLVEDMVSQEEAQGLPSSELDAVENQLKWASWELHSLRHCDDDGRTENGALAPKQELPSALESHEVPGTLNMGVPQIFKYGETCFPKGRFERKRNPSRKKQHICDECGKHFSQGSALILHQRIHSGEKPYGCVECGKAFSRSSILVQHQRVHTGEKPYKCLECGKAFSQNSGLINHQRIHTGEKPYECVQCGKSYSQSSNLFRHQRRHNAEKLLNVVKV
UniProt Q9NWK9: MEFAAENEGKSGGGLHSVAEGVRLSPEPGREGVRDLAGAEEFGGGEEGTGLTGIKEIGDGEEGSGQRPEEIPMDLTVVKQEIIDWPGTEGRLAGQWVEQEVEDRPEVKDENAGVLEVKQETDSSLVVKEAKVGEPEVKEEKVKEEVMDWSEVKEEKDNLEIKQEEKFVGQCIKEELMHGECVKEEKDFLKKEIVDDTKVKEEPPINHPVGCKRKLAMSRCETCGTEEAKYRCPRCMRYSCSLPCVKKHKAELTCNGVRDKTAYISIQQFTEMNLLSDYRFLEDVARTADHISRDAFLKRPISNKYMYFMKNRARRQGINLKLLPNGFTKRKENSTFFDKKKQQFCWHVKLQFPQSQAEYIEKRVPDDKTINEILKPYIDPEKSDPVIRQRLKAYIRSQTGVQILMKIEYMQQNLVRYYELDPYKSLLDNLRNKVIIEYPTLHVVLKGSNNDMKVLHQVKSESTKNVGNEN
UniProt O15014: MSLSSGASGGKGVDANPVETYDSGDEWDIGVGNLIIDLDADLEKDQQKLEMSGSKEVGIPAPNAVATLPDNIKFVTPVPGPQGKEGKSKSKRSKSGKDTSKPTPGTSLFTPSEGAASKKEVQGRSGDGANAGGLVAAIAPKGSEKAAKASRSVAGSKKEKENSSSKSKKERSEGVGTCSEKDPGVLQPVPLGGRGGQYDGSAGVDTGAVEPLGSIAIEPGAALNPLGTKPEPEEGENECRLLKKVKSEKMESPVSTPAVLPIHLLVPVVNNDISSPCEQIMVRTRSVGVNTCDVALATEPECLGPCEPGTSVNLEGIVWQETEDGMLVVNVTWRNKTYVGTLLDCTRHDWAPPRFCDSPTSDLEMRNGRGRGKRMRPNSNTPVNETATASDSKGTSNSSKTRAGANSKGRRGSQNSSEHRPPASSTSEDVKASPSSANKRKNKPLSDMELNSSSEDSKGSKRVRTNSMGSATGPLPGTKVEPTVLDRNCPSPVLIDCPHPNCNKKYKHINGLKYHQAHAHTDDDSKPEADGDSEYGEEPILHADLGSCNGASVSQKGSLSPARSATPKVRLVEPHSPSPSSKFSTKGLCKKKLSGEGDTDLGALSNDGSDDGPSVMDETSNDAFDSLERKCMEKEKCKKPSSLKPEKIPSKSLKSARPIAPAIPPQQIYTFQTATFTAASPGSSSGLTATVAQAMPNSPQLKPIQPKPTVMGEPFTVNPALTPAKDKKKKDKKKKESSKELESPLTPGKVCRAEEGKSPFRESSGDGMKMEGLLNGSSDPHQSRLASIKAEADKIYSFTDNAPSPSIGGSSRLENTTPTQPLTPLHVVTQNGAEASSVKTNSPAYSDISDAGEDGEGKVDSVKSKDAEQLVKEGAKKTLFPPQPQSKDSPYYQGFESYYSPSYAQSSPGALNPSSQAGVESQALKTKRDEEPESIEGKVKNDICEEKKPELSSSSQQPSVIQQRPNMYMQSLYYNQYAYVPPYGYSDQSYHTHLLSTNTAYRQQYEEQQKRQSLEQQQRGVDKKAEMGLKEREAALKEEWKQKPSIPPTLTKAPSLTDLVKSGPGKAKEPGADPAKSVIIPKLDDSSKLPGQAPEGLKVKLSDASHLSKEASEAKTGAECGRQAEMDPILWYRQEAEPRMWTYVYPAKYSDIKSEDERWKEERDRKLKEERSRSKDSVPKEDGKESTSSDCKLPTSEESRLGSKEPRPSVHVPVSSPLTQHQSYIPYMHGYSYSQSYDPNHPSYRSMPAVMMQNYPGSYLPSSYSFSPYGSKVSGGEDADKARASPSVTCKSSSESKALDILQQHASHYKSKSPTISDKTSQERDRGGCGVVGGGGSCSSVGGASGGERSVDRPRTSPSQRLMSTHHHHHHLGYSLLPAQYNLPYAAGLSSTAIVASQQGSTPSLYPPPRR
UniProt O75312: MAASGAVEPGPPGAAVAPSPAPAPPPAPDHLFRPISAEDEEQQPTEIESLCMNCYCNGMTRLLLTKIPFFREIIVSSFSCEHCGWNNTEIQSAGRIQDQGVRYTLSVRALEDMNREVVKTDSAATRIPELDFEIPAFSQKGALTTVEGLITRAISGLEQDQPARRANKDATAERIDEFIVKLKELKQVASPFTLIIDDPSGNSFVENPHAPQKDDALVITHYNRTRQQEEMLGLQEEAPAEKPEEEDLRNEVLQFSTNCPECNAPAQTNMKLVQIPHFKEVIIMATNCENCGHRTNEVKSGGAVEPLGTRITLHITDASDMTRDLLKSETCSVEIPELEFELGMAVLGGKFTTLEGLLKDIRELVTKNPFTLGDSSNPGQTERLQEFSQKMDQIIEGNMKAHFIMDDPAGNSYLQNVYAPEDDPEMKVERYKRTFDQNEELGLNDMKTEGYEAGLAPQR
UniProt Q9NRM2: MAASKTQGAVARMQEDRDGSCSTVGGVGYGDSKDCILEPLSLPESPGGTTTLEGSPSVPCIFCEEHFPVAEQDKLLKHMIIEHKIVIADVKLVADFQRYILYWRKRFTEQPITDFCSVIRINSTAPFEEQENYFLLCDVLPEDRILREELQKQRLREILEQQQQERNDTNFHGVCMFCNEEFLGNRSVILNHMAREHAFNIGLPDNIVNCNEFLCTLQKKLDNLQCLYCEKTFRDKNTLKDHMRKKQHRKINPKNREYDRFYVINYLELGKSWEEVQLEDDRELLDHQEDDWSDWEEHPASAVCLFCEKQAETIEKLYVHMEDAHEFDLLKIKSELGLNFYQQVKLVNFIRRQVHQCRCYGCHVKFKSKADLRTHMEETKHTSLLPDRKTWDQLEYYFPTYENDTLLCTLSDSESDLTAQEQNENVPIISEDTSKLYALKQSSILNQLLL
UniProt Q9P1U0, whole entry, looked up: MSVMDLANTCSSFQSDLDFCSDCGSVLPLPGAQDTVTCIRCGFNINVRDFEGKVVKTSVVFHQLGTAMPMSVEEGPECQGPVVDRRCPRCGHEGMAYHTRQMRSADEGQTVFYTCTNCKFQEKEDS
UniProt O00488: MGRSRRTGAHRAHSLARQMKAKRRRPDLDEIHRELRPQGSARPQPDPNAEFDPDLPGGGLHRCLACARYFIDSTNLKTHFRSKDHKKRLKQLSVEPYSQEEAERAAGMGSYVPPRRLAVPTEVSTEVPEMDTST
UniProt O43264: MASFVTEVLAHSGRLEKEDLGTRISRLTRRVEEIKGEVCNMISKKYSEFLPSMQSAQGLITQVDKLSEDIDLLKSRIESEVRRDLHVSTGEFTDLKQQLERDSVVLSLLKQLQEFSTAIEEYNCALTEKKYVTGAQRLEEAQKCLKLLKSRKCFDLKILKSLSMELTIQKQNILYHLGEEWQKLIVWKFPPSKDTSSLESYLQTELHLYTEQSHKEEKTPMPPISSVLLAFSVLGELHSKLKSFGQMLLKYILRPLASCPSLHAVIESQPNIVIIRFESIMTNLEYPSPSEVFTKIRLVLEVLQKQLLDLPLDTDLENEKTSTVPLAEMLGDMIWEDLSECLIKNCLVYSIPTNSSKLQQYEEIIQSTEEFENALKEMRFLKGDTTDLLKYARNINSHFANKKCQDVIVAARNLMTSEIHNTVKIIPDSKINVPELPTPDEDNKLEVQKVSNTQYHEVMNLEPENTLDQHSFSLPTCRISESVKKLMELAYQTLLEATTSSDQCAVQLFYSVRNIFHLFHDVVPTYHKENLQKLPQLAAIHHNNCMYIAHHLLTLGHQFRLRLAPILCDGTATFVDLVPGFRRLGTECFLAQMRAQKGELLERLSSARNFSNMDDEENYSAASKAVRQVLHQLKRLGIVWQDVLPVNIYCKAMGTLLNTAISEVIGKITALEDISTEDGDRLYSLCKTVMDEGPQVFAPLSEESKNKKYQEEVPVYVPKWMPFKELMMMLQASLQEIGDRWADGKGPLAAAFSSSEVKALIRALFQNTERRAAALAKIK
UniProt Q15942: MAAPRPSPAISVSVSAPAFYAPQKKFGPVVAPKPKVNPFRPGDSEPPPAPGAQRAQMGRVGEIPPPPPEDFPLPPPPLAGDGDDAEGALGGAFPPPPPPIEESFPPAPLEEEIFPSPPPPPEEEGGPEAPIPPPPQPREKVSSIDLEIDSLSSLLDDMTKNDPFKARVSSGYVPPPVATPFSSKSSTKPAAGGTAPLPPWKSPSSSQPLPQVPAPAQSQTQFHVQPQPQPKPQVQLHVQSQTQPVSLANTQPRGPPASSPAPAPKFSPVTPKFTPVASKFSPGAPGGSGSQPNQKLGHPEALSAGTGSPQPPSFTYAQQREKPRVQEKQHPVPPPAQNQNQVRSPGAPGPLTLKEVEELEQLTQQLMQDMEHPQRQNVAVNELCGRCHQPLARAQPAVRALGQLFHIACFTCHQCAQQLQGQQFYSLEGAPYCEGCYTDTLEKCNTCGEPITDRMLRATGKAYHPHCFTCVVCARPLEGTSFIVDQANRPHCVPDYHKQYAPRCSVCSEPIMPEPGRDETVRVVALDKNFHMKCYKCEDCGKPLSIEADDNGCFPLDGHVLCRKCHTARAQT
UniProt P00519, whole entry, looked up: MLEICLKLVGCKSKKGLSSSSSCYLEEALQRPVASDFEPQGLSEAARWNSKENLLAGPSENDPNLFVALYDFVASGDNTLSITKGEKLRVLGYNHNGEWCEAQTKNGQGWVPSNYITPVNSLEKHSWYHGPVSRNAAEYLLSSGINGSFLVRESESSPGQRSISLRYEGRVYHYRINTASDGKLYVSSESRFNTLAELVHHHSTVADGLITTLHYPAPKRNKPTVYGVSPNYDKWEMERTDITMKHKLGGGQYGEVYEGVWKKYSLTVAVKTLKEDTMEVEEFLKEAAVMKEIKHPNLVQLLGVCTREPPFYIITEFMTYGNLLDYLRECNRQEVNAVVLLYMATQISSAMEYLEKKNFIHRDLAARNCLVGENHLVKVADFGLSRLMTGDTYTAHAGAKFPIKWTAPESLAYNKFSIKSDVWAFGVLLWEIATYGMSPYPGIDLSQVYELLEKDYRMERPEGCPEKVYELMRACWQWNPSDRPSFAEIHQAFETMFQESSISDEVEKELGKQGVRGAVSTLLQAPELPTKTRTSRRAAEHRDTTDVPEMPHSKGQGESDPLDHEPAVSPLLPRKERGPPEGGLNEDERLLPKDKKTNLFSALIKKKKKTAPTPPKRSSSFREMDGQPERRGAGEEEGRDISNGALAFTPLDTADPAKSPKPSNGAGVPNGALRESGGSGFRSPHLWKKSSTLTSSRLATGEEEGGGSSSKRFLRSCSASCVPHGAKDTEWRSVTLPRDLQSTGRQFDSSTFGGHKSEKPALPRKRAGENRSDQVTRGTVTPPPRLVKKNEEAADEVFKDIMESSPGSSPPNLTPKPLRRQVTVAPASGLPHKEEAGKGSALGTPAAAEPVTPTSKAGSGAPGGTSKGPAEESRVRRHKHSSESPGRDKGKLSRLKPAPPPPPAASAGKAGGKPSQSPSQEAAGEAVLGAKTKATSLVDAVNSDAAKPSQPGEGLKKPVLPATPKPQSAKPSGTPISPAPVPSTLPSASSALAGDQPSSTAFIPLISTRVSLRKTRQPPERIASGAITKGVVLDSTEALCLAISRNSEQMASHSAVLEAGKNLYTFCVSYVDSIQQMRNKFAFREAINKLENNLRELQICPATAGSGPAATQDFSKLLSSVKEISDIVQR
UniProt Q16670: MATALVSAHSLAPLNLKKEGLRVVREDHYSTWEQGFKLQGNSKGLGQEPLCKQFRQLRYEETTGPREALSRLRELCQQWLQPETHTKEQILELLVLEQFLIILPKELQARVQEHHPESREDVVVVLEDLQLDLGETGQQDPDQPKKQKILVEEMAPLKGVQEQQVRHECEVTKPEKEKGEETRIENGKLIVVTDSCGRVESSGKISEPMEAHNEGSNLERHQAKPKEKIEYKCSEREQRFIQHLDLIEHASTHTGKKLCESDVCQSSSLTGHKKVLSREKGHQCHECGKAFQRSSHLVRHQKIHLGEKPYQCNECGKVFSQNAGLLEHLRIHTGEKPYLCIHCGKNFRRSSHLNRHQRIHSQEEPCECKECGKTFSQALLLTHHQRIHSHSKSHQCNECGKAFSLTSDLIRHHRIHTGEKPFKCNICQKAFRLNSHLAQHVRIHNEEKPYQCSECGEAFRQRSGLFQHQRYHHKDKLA
UniProt Q9UK33: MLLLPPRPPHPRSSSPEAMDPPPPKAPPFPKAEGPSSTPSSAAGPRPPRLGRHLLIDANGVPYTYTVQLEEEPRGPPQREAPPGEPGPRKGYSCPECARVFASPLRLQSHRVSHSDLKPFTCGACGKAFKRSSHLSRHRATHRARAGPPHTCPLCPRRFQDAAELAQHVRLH

Legend:
[1] = compound: C1=CC=C(C=C1)[C@H](COC2=CC3=C(C=C2)NC(=O)N3)NC(=O)C4=CC=CN(C4=O)CC5=CC(=C(C=C5)F)F; test: log2 fold change, soluble protein after heating vs DMSO (PISA); higher = thermal stabilisation; K562 cells, 10 uM, 30 min; active = over 0.2 and 3.5 SD of the protein, either way, in both replicates (recomputed)
How it was run: (§1)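 Values are thermal stability changes relative to control samples and are taken from duplicates. They are stated as log2 fold changes. Before quantification by TMTpro 16plex LC-MS/MS with equalised channel sums, K562 cells at 2×10^6 cells/mL were treated with 10 μM compound for 30 min, heated in aliquots for 3 min across 48°C-58°C, pooled, extracted in PBS with 0.5% NP-40 at 4°C, and centrifuged at 21,000xg for 90 min to give the soluble supernatant.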

[2] = compound: CC1=C(SC2=C1C(=N[C@H](C3=NN=C(N32)C)CC(=O)N)C4=CC=C(C=C4)Cl)C; test: as above
How it was run: as §1

[3] = compound: CC1=C2C(=CC=C1)N=C(N(C2=O)C3=CC=CC=C3C)CN4C=NC5=C(N=CN=C54)N; test: as above
How it was run: as §1

[4] = compound: Cc1sc2c(c1C)C(c1ccc(Cl)cc1)=N[C@@H](CC(=O)OC(C)(C)C)c1nnc(C)n1-2; test: as above
How it was run: as §1

[5] = compound: c1ccc([C@@H]2C[C@H]2NC2CCNCC2)cc1; test: as above
How it was run: as §1

[6] = compound: C1=CC=C(C=C1)[C@H](COC2=CC3=C(C=C2)NC(=O)N3)NC(=O)C4=CC=CN(C4=O)CC5=CC(=C(C=C5)F)F; test: log2 fold change, soluble protein after heating vs DMSO (PISA); higher = thermal stabilisation; K562 lysate, 10 uM; active = over 0.2 and 3.5 SD of the protein, either way, in both replicates (recomputed)
How it was run: (§2)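 Log-two fold change in thermal stability relative to solvent controls is reported from duplicates. For each sample, crude K562 extract from dounce-homogenised pellets in PBS pH 7.4 with 1 mM MgCl2, at 1 mg/mL protein, was treated with 10 μM compound for 30 min. Aliquots heated for 3 min across 48°C-58°C were pooled, brought to 0.5% NP-40 at 4°C and cleared at 21,000xg for 90 min. The supernatant was quantified by TMTpro 16plex LC-MS/MS with channel sums equalised.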

[7] = compound: CC1=C(SC2=C1C(=N[C@H](C3=NN=C(N32)C)CC(=O)N)C4=CC=C(C=C4)Cl)C; test: as above
How it was run: as §2

[8] = compound: CC1=C2C(=CC=C1)N=C(N(C2=O)C3=CC=CC=C3C)CN4C=NC5=C(N=CN=C54)N; test: as above
How it was run: as §2

[9] = compound: Cc1sc2c(c1C)C(c1ccc(Cl)cc1)=N[C@@H](CC(=O)OC(C)(C)C)c1nnc(C)n1-2; test: as above
How it was run: as §2

[10] = compound: c1ccc([C@@H]2C[C@H]2NC2CCNCC2)cc1; test: as above
How it was run: as §2

Measured: log2 fold change

ZWINT (UniProt O95229)
inactive: [1] -0.011 | [2] -0.005 | [3] 0.079 | [4] -0.003 | [5] 0.015

ZNF24 (UniProt P17028)
inactive: [1] 0.028 | [2] -0.148 | [3] -0.05 | [4] 0.112 | [5] 0.034

ZNRD2 (UniProt O60232)
inactive: [1] -0.008 | [2] 0.07 | [3] 0.02 | [4] -0.112 | [5] -0.074

ZNF638 (UniProt Q14966)
inactive: [1] -0.014 | [2] -0.063 | [3] -0.096 | [4] 0.08 | [5] 0.069

ZNHIT6 (UniProt Q9NWK9)
inactive: [1] -0.042 | [2] -0.037 | [3] -0.158 | [4] 0.049 | [5] 0.064

ZNF609 (UniProt O15014)
inactive: [1] 0.035 | [2] -0.008 | [3] 0.148 | [4] 0.14 | [5] 0.073

ZPR1 (UniProt O75312)
inactive: [1] 0 | [2] 0.034 | [3] 0.027 | [4] -0.007 | [5] -0.006

ZRANB2 (UniProt O95218)
inactive: [1] -0.002 | [2] -0.073 | [3] -0.07 | [4] 0.021 | [5] 0.093

ZNF511 isoform 1 (UniProt Q8NB15)
inactive: [1] -0.015 | [2] -0.128 | [3] 0.064 | [4] -0.123 | [5] 0.102

ZNF385A (UniProt Q96PM9)
inactive: [1] 0.055 | [2] -0.048 | [3] 0.074 | [4] 0.044 | [5] 0.018

ZNRF2 (UniProt Q8NHG8)
inactive: [1] -0.058 | [2] 0.095 | [3] -0.027 | [4] -0.024 | [5] 0.047

ZNF277 (UniProt Q9NRM2)
inactive: [1] -0.134 | [2] 0.028 | [3] -0.007 | [4] 0.286 | [5] 0

ZNRD1 (UniProt Q9P1U0)
inactive: [1] -0.097 | [2] -0.019 | [3] -0.181 | [4] 0.034 | [5] 0.05

ZNF618 (UniProt Q5T7W0)
inactive: [1] 0.06 | [2] 0.042 | [3] 0.078 | [4] 0.011 | [5] -0.052

ZZEF1 (UniProt O43149)
inactive: [1] -0.068 | [2] 0.016 | [3] 0.047 | [4] 0.003 | [5] -0.035

ZNF593 (UniProt O00488)
inactive: [1] 0.001 | [2] -0.049 | [3] -0.206 | [4] 0.22 | [5] -0.028

ZYG11B (UniProt Q9C0D3)
inactive: [1] 0.057 | [2] 0.086 | [3] 0.011 | [4] -0.02 | [5] 0.044

ZW10 (UniProt O43264)
inactive: [1] -0.044 | [2] 0.044 | [3] 0.018 | [4] -0.004 | [5] 0

Random excerpt: 2 entries already listed, in no set order.
ZNF618 (UniProt Q5T7W0)
inactive: [1] 0.06 | [2] 0.042 | [3] 0.078 | [4] 0.011 | [5] -0.052

ZYG11B (UniProt Q9C0D3)
inactive: [1] 0.057 | [2] 0.086 | [3] 0.011 | [4] -0.02 | [5] 0.044

(continued)

ZYX (UniProt Q15942)
inactive: [1] 0.024 | [2] 0.016 | [3] -0.051 | [4] 0.003 | [5] 0.044

ABL1 isoform 2 (UniProt P00519)
inactive: [6] -0.042 | [7] -0.065 | [8] 0.067 | [9] -0.017 | [10] 0.102

ZNF316 (UniProt A6NFI3)
inactive: [1] 0.066 | [2] 0.024 | [5] -0.074

A2M (UniProt P01023)
inactive: [6] 0.026 | [7] 0.034 | [8] 0.048 | [9] -0.074 | [10] -0.099

ABHD17B (UniProt Q5VST6)
inactive: [6] 0.014 | [7] 0.044 | [8] -0.028 | [9] -0.044 | [10] -0.198

AAMDC (UniProt Q9H7C9)
inactive: [6] -0.03 | [7] -0.042 | [8] 0.094 | [9] -0.009 | [10] -0.023

ZNF318 (UniProt Q5VUA4)
inactive: [2] -0.137 | [5] -0.079

ZSCAN26 (UniProt Q16670)
inactive: [4] 0.09

ZNF580 (UniProt Q9UK33)
inactive: [3] -0.16 | [4] 0.029

ACADVL isoform 3 (UniProt P49748)
inactive: [6] 0.002 | [7] 0.016 | [8] 0.033 | [9] 0.021 | [10] -0.004
